In article PMC10612264, “A novel transcriptional repressor specifically regulates xylanase gene 1 in Trichoderma reesei”:
Negatives hold for the conditions tested. Tags and fusion partners may be left off the protein sequences shown.

Molecular target: T1, XTR1 DBD (Trichoderma reesei QM9414) (UniProt G0RH11)
T1 sequence (looked up, limits assumed): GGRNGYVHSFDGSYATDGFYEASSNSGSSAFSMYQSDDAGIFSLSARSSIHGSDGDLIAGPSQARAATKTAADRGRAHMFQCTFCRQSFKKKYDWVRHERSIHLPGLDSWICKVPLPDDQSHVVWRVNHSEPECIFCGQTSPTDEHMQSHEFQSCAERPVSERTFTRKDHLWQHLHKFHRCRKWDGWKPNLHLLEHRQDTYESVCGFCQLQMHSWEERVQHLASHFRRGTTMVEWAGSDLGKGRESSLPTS
Assay: EMSA
Details: EMSA: 10 mM Tris pH 7.5, 50 mM KCl, 1 mM DTT, 150 ng DNA, 20 C 30 min, 6% native PAGE at 4 C in 0.5x TBE, EtBr; recombinant protein; label: none (EtBr stain); probe letters rebuilt from the primers and the genome

Sequence	binding result
TATGCAGAATTCTTCCACATTCAAAACCTCTTCACATCATGATTTGAGCTTTGACTTCAATTCTCTTGATGAAACTCAGACATCATCAAGTGAGGTTGAAAGCGGCTCGTACAGTATCCTCGAAGCTTGGCATTTTGCCTAAAGCACGCCCTCCAGGTATCGGATCAAACGGCATAGGAGTGCCGGAATAGATTGAACGCCACCCGCAATATCGACACAAGCCGGTCCTAGTTAACTGCTGAAATATGGCAGTAATGCATCGAACCCGGCGCTTCGGGCCTCAAGCGGCGCGTTCCCCAGATCTGGGGTGCATCCGGCTAAGATGTCGCATTTAGCCTGCCAATCAAGTCAAGGGGCTTCATGTCGGACTTGCGGAGGATGTTGTATTCCAGTGGGCCGCATCTGCAATCTCATGGAGTTTTACGTAGTTGCTTGAGGCCATTTGCTGCAGAATTGTAGGACTAGTACAGGAGAAGGCCTTGGAGTGCAATGACTTGCCACAGAGGGACAAGCCATGGCCTTCCATTCTTTAACGGCTGAACCTAGTCATCCTTAAACAATGTCCCGGAAATTCCCAGCATGTAACAAATAAAATAGACGATGCACGAGTGTCTTGGTAGATGTAGCTGCTTTCACGGCATTGCGAACTAAGAACGCAGGGGCTACGAAGCCTAGAGCTCCTGTAAGTCT (double strand) [Pxyn1a (-750 to -91)]	binds
GATCATAGACGCAGCCAGCGACATGCAGTGCAATGTCATGGATGTTTTGTGGGTTACGTTCGTCCCTACAGAGTCACTGGCAGGCTACATGCATGTCATGGTCCCATATCGCCCATTCGACCACCGTCAGCCCAGTACTTGCTCGTGTCAATCTCCGTCAGTCGCGTGTGATCAGACATTCCAACTGGATCTGGGCCAGCCGGGCACTCTTTGCCTTGTCCTGTTTGACAGGTTCAATTTGCTCTGTATGCCACTTCTGTCCAGTCTGTTTAGTGAGCCAGACTGCTGAGACACTCTGAACCGAGGAGCAAGCGCCTCCACAGCCAAGAAGTTGAAGAAGACGGCAGACACCCACACAGTGACCACGAAGCTTTGTCACGCAGTATTGATCCCATCAACCACTAGCAAATCCCTAGACACCCCGAAAGGACTTCAACAGTGACCTAGCAGCAAAGCCGTGAGTCTCGGACGGCCTCTTGTTCAACTCAACCGACCTTCCAAGCTACAAAAACGACAAGGTTGGATGTCTGCCGTTTGCTGCCTCGCCACCAGCTGACTTTAGGCAAAACAGGTCATTGAATCCAGATCGGAGTCGACACTCGCATCCGTGCTCCGGGAGTCACGATCGAGACATGCCGCCCAAGCATGCAACCTGCCCCAGGGTCCGATTATATCCAATTTAGCCGCTGGACAAGCTGCATCCATGCCGCTCATCACCCCCGCAAATCACTTTCGGGTCCCGTCTTCTCCCAGATTGCTTTCATCGGCACTAGACCAATGG (double strand) [Pxyn2b (-1500 to -750)]	no binding
